For two substances, binding results are on record in paper PMC10329019, “Membrane translocation process revealed by in situ structures of type II secretion system secretins” (Nature Communications, 2023).

For assay [1], the target named is T1, GspDβ secretin (ETEC H10407 strain) with hexahistidine tag, from pETDuet-gspDβ-his-gspS, co-expressed with GspS (Enterotoxigenic E. coli (ETEC) H10407 strain) (UniProt E3PJ86).
T1 sequence: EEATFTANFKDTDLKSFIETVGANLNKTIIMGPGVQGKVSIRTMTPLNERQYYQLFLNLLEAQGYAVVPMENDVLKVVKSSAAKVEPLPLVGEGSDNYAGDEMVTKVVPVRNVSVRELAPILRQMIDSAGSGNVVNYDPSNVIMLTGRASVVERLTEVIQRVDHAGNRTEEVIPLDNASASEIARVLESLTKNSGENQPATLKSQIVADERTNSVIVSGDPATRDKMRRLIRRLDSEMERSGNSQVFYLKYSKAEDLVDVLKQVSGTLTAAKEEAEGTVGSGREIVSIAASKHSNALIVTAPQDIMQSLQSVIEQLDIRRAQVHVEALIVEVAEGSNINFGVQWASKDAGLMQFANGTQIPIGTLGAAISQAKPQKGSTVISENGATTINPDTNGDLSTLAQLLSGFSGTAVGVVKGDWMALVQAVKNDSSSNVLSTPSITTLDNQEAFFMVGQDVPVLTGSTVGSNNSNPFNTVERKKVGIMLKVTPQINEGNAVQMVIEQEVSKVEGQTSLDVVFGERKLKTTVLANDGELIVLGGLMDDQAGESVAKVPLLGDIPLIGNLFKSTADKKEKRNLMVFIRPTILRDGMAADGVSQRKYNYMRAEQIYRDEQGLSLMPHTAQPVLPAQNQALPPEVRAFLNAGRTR
The experiment in a line: cryo-EM structure; in situ cryo-ET subtomogram averaging of particles on the outer membrane of E. coli minicells overexpressing GspDβ and GspS; 514 particles, C15 symmetry, 19 Å; C5 refinement as a test of symmetry.

Assay [2] addresses T2, GspDβ secretin (ETEC H10407 strain) with C-terminal hexahistidine tag, from pETDuet-gspDβ-his, expressed alone (Enterotoxigenic E. coli (ETEC) H10407 strain) (UniProt E3PJ86).
T2 sequence: T1 sequence
As to the kind of experiment: cryo-EM structure; in situ cryo-ET subtomogram averaging of particles on the outer membrane of E. coli minicells overexpressing only GspDβ; 723 particles, C15 symmetry, 16 Å; C5 refinement as a test of symmetry.

No constants are given. Whether binding was seen depends on the method and setting. Binding can be weak; no strength is given. Tags and fused reporters may be left off the sequences shown.

As for “GspS pilotin (ETEC H10407 strain), no tag”, the binding result in assay [1] was “binds”.

Consider “endogenous GspS of the E. coli expression strain”, for which the binding result in assay [2] is recorded as “binds”.
